Laboratory results from paper doi:10.1101/2021.05.10.443400 (bioRxiv, 2021).
These are yes or no findings as the source states them, for the method shown. In cells and extracts the contact can be indirect. These calls come from enrichment with a bait or labelling near it, and not all partners need be listed.

Protein sequences, listed by entry. Tags and fused reporters are not part of them.
UniProt P52701: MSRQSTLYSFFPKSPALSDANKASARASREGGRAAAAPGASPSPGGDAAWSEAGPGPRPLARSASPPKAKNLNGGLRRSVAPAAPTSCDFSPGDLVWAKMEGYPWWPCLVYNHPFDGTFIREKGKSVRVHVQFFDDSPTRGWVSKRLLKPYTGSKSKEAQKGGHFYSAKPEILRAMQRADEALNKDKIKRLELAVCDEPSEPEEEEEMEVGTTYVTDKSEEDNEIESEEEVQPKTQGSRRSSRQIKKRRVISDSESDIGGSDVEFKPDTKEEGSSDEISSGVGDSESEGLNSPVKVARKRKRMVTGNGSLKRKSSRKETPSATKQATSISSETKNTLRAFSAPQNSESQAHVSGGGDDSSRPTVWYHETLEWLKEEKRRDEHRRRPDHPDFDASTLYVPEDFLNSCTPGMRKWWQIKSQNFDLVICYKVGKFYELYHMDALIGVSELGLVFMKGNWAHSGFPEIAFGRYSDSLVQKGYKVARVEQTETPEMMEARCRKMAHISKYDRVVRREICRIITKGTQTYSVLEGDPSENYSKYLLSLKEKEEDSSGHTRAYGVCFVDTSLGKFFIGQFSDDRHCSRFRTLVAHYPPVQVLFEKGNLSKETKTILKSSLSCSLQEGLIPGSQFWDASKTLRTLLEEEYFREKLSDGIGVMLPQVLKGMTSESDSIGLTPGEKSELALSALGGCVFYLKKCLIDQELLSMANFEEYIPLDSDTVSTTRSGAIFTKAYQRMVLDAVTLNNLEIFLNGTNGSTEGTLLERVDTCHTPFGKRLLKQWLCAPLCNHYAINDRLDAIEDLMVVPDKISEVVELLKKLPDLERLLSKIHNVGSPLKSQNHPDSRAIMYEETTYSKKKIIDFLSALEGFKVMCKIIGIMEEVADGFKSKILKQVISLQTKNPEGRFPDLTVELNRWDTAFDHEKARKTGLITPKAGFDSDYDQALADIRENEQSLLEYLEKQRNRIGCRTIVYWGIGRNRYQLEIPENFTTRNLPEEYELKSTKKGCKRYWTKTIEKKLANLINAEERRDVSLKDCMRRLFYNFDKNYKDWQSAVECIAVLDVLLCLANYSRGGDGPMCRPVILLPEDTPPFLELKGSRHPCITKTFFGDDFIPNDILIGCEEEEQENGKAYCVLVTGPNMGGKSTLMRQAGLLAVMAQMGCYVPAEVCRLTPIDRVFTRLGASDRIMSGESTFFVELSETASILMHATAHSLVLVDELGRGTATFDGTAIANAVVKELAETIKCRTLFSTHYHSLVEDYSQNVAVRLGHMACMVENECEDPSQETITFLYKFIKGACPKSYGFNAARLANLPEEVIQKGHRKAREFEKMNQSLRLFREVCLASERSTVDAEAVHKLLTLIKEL

Biological target: T1, T7-Orc6 (human) (UniProt Q9Y5N6)
T1 sequence: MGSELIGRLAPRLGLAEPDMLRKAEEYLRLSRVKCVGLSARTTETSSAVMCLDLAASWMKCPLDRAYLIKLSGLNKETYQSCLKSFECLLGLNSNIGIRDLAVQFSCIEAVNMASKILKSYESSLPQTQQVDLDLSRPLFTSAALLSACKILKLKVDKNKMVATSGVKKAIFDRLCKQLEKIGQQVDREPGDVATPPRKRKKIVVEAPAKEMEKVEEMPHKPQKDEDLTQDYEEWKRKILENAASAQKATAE
Experiment: affinity purification with mass spectrometry

Question: With “MSH6, endogenous (from UniProt P52701 1-1360)” as the substance, how does the binding read?
Answer: binds
